Measured values reported in US20230008508A1, “COMBINATION THERAPIES FOR THE TREATMENT OF CANCER” (H. LEE MOFFITT CANCER CENTER AND RESEARCH INSTITUTE, INC., priority 2019, published 2023).
For at least one compound, name, drawing or mass did not settle the structure.

Tests used:
HCC95 cells = experiment: Cell proliferation and survival (cell cycle arrest, annexin V apoptosis); type: cell-based; settings: FIG. 16
Experimental: (§1) Cell cycle arrest and apoptosis are increased by pramlintide and HDACi in HCC95 lung SCC and H1975 lung adenocarcinoma cell lines.
(§2) In fact, it was observed that both pramlintide and HDACi treatment reduces ΔNp63 in H1975 lung adenocarcinoma (LUAD) cells (FIG. 15). […] To investigate what effects panobinostat has on the glycolytic rate of HCC95 and H1975 cells, glycolysis was measured by ECAR showing in both […] glycolysis was decreased with treatment (FIG. 17).

H1975 cells = experiment: as above; type: cell-based; settings: FIG. 16
Experimental: as §1, §2

C/C=C1\NC(=O)[C@H]2CSSCC/C=C/[C@H](CC(=O)N[C@H](C(C)C)C(=O)N2)OC(=O)[C@H](C(C)C)NC1=O [romidepsin]
Apoptosis (annexin V staining) (HCC95 cells; HCC95): increased apoptosis
Proliferation (HCC95 cells; HCC95 cells): reduced proliferation
Cell cycle arrest (HCC95 cells; HCC95 lung SCC): increased
Apoptosis (annexin V staining) (H1975 cells; H1975): increased apoptosis
Proliferation (H1975 cells; H1975 cells): reduced proliferation
Cell cycle arrest (H1975 cells; H1975 lung adenocarcinoma): increased
